Source: patent US7012127B1, “Analogues of lipopolysaccharide-binding protein (LBP)-derived peptides that efficiently neutralize lipopolysaccharides (LPS)” (Centro de Ingenicria Genetica y Biotecnologia, priority 1999, dated 2006)
Some of these results come from one statement about several compounds together.

Tested on: LPS-stimulated human PBMC
Assay: LPS-induced IL-6 production in cultures of human PBMC
Format: cell-based
Conditions: IL-6 in supernatants after 18 h
Protocol: In order to determine if the peptides of the present invention were able to neutralize LPS-mediated responses, their ability to reduce the release of TNF by LPS-activated human peripheral blood cells was estimated. This assay evaluates the release of TNF by LPS-induced human peripheral blood mononuclear cells (PBMC), using concentrations of LPS commonly found in septic patients. LPS was incubated with fixed concentrations of each peptide during 2 h at 37° C. and the mixtures were then added to PBMC. The culture medium was supplemented with human LBP (200 ng/mL) and plates were incubated at 37° C. in a 5% CO2 atmosphere. TNFα was measured in culture supernatants after 18 h using a human TNF-α specific ELISA. FIG. 4 represents the average results from three different experiments. […] LBPA95 and LBPA96. […] Similar results were observed when other concentrations of LPS (2 or 10 ng/mL) and hLBP (20 or 100 ng/mL) were used.
This invention provides peptides with advantageous functions over other LBP-derived peptides that have the native sequence or different a.a. replacements to those herein described at positions +1, +5, +6, +7, +9, +10, +11, +12 and +13. Among these others are some peptides previously described by their ability to reduce LPS biological effects^11–14. […] The experimental procedure was similar to that one described in EXAMPLE 2. IL-6 was measured in culture supernatants after 18 h using a human IL-6 specific ELISA. In the represented experiment, the following peptides were evaluated; LPB86-99, LBP-H (LBP86-101, SEQ ID NO. 56)^13, LBPA94, LBPA95, and LBPA98. IL-6 production was inhibited by more than 35% only by LBPA94, LBPA95 and LBPA98, which have essential a.a. as defined in the present invention at positions +9, +10 and +13 respectively. LBPA95 reduced the LPS-triggered response more than 70%, at every hLBP concentrations tested. This example remarks the capacity of the peptides or this invention to reduce the production of pro-inflammatory cytokines by LPS-stimulated cells.
Results are expressed as % inhibition of IL-6 release compared with the cytokine production in the absence of peptides The effects on this assay of LBP86-99, (LBP), LBP-H and B6,1 are also shown.

Substance	inhibition of IL-6 production
LBP-H: previously described LBP-derived peptide LBP86-101, SEQ ID NO. 56 (QGRWKVRKSFFKLQ) [reference compound]	≤ 35%
LBPA98: LBP 86-99 peptide analogue, SEQ ID No.7, essential a.a. at position +13 (RVQGRWKVRKSFAK)	more than 35%
LBPA95: LBP 86-99 peptide analogue, SEQ ID No.5, essential a.a. at position +10 (RVQGRWKVRASFFK)	more than 35%
LBP86-99: peptide with the native sequence of the 86-99 a.a. region of human LBP mature protein (RVQGRWKVRKSFFK) [reference compound]	≤ 35%
LBPA94: LBP 86-99 peptide analogue, SEQ ID No.4, essential a.a. at position +9 (RVQGRWKVAKSFFK)	more than 35%
